# At least one compound was matched to its structure with a doubt left.
# Tested on: mouse embryonic fibroblasts (MEFs)
# Assay: Reprogramming efficiency: GFP-positive cells by flow cytometry in KSP-Cre mTOM/mGFP reporter MEFs
# Format: cell-based
# Conditions: added to culture medium of 4TF treated MEFs for 7 days: Vitamin C 50 μg/ml, CHIR99021 3 μM, Forskolin 10 μM, Valproic Acid 1 mM, 5-Azacytidine 2 μM
compound,measurement,value
C=C[C@@]1(C)CC(=O)[C@]2(O)[C@@]3(C)[C@@H](O)CCC(C)(C)[C@@H]3[C@H](O)[C@H](OC(C)=O)[C@@]2(C)O1 [forskolin],effect on the percentage of GFP-positive cells,did not have an effect
